Experimental data: the supplement of paper PMC10849652
Some of the results follow.

Amino acid sequences for entries named in this document (tags omitted). A change or cut given only in a name is not applied to a line headed by its entry.
UniProt Q9H9Y6, whole entry, looked up: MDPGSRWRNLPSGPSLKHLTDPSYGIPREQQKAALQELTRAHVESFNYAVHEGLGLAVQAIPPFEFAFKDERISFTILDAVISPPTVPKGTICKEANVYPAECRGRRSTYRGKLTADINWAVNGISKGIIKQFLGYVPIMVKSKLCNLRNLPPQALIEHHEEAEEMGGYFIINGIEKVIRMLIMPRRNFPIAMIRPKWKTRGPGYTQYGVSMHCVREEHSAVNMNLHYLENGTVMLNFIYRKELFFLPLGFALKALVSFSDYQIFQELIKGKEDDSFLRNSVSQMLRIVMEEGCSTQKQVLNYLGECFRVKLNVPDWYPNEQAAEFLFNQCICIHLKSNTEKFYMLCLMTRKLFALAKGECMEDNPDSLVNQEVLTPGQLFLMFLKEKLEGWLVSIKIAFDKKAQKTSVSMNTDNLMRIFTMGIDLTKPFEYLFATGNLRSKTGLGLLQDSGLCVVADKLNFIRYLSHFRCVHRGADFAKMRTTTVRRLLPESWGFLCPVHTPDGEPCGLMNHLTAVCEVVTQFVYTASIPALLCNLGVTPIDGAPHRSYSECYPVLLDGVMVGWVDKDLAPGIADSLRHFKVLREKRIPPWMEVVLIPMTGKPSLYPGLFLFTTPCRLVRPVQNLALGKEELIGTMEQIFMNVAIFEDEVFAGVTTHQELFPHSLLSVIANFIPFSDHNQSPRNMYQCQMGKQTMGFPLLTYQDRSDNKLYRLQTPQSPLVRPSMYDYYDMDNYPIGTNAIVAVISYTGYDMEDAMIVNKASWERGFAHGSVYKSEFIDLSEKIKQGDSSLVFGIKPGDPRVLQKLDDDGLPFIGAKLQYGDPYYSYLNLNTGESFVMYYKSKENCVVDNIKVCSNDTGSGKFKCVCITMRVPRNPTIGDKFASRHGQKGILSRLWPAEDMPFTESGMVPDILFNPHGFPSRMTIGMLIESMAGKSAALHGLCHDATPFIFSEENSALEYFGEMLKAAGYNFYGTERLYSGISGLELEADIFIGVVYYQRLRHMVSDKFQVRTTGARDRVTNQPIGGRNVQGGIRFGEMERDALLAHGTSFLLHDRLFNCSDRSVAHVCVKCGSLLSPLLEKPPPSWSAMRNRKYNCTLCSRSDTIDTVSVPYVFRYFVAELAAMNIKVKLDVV
UniProt P09884: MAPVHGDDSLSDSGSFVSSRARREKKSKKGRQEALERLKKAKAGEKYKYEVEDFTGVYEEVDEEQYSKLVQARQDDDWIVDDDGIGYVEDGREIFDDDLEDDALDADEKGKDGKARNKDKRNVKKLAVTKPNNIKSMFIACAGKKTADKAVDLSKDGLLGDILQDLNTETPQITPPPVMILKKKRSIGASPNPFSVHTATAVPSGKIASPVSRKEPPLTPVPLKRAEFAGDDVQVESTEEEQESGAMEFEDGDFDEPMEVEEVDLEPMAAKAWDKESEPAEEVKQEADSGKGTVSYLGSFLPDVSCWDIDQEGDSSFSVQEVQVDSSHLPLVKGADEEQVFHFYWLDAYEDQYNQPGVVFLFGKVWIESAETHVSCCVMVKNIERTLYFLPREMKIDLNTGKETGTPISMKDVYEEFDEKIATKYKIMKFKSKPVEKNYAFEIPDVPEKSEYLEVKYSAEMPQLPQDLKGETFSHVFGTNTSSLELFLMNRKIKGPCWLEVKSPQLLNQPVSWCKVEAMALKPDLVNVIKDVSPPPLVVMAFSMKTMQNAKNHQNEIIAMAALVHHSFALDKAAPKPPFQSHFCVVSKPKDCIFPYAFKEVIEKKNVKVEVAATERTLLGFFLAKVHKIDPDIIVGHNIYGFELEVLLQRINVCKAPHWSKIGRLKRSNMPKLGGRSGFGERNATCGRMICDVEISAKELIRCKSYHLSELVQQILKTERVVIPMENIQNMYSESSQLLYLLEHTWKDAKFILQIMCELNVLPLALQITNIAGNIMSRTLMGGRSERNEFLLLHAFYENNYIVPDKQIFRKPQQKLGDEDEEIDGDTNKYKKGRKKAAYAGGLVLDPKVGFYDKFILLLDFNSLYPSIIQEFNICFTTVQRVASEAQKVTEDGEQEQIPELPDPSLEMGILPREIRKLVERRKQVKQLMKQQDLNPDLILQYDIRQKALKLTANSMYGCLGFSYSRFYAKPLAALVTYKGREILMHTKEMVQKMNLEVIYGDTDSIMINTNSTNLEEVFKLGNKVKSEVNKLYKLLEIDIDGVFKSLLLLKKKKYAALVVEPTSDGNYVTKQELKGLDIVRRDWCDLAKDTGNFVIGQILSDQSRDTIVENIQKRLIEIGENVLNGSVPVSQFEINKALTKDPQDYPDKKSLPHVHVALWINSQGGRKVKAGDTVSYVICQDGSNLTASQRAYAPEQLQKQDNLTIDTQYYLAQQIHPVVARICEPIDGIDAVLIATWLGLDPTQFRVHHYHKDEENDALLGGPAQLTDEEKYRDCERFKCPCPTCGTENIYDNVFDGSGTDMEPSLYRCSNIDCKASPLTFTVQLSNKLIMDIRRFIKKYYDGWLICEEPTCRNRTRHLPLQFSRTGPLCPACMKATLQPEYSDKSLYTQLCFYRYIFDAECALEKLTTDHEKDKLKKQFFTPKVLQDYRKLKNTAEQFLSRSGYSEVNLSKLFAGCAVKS
UniProt Q06203, whole entry, looked up: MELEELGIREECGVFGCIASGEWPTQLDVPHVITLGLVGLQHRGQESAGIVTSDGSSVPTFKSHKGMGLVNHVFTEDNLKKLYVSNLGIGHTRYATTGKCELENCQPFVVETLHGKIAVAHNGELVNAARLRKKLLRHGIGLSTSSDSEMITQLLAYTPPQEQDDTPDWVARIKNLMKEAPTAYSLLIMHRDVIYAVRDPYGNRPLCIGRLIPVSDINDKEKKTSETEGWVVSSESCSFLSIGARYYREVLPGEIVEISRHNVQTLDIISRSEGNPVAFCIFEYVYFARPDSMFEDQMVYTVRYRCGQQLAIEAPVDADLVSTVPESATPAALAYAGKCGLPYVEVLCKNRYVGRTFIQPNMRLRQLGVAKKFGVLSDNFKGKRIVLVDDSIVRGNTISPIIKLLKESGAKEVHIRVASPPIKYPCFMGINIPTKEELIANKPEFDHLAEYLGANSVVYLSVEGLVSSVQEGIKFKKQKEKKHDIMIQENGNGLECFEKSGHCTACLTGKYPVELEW
UniProt Q8TCS8: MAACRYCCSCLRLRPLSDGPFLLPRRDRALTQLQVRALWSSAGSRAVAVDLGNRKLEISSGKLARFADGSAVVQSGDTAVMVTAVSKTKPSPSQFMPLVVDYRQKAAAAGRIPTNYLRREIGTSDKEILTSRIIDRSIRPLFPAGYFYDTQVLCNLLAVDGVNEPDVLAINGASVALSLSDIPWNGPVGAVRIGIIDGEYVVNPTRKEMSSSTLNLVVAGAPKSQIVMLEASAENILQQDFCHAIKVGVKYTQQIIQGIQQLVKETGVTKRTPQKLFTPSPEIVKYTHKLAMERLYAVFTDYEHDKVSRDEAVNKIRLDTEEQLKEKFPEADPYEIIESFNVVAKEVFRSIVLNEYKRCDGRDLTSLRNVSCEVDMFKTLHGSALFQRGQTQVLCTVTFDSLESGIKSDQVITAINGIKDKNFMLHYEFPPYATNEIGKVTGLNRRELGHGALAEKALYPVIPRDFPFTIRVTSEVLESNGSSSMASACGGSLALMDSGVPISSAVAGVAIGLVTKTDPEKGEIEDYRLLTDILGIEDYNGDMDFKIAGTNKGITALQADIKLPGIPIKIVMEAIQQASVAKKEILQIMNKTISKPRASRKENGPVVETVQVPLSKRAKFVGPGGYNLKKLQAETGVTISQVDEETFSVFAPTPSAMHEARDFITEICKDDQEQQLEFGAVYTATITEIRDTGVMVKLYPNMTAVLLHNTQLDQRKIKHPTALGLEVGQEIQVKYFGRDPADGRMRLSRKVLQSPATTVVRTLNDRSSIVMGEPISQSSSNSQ
UniProt Q08752, whole entry, looked up: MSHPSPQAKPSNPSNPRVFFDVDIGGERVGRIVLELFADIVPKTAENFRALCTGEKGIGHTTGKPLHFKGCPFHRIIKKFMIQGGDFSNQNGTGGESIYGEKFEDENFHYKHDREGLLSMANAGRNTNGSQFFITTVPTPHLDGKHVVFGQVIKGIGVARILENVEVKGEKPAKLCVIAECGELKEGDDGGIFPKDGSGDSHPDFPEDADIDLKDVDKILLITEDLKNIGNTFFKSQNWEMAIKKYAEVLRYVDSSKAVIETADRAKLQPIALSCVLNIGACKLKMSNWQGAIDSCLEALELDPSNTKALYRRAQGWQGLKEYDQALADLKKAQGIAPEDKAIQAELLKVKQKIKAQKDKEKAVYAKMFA
UniProt O75145: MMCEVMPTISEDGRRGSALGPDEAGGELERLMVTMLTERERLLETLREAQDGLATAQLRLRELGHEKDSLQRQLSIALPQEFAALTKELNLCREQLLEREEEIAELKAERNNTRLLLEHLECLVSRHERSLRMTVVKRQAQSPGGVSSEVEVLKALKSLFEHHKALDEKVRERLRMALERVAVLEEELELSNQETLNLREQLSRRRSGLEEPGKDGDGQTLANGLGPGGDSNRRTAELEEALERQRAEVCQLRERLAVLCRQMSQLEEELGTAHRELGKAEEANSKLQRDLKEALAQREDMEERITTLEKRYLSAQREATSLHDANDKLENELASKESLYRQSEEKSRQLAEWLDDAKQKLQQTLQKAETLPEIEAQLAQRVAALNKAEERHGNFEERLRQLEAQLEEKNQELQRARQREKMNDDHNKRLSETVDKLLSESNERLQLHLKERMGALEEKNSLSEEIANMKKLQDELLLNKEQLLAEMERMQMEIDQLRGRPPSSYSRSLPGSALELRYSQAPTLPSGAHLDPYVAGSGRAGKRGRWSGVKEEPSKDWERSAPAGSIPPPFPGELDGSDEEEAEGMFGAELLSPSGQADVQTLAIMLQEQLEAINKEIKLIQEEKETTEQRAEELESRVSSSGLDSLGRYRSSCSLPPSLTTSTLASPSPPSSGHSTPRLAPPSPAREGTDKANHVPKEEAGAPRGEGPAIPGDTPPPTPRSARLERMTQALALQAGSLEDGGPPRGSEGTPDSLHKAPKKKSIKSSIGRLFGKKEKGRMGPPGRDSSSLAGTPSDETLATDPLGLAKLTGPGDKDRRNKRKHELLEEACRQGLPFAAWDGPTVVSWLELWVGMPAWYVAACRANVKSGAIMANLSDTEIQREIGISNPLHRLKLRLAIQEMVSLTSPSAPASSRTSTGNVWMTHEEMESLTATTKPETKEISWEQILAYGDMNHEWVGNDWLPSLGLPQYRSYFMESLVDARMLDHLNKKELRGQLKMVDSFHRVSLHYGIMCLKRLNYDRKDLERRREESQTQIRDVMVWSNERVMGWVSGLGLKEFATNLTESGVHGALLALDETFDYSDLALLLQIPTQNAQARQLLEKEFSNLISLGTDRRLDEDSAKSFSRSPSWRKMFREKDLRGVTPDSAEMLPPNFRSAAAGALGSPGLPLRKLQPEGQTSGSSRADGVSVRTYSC
UniProt Q04941: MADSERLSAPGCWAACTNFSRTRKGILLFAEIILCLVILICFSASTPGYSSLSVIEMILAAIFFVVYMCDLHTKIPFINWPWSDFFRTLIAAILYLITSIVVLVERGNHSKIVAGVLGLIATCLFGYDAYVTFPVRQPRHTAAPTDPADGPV
UniProt O75817: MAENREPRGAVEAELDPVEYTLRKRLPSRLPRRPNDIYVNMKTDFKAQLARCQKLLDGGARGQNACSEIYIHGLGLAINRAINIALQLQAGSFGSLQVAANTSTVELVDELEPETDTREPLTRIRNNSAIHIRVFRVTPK
UniProt Q6P1K2: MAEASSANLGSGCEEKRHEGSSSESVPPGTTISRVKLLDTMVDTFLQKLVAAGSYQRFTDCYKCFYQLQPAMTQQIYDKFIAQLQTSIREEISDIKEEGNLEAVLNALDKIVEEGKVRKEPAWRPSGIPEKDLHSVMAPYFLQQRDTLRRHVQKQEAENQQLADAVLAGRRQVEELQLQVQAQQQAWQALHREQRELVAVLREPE
UniProt Q7Z4H8: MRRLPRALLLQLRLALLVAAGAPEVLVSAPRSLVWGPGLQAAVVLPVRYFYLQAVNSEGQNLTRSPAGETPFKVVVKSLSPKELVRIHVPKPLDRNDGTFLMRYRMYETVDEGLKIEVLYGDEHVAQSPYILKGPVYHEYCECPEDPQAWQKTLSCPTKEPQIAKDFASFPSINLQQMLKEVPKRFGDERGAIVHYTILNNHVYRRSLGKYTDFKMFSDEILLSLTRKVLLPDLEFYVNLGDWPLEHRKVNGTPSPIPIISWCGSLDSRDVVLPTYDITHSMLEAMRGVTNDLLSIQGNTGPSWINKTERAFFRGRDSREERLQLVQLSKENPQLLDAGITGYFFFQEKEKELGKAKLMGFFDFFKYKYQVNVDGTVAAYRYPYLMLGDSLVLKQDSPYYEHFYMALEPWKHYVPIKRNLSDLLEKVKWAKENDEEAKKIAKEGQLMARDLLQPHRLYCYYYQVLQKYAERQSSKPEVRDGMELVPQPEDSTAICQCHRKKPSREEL

Columns and labels:
Experiment in all cases: log2 fold change, soluble protein after heating vs DMSO (PISA); higher = thermal stabilisation; K562 lysate, 10 uM; active = over 0.2 and 3.5 SD of the protein, either way, in both replicates (recomputed)
[1] = compound: C1=CC=C(C=C1)[C@H](COC2=CC3=C(C=C2)NC(=O)N3)NC(=O)C4=CC=CN(C4=O)CC5=CC(=C(C=C5)F)F
How it was run: (§1)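 Thermal stability, expressed as log-two fold change relative to solvent controls, is given from duplicates. Crude K562 extract in PBS pH 7.4 with 1 mM MgCl2, at 1 mg/mL protein, was treated with 10 μM compound for 30 min and heated in aliquots for 3 min across 48°C-58°C. After pooling, adjustment to 0.5% NP-40 at 4°C and centrifugation at 21,000xg for 90 min, supernatant protein was measured by TMTpro 16plex LC-MS/MS with channel sums equalised.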

[2] = compound: CC1=C(SC2=C1C(=N[C@H](C3=NN=C(N32)C)CC(=O)N)C4=CC=C(C=C4)Cl)C
How it was run: as §1

[3] = compound: CC1=C2C(=CC=C1)N=C(N(C2=O)C3=CC=CC=C3C)CN4C=NC5=C(N=CN=C54)N
How it was run: as §1

[4] = compound: Cc1sc2c(c1C)C(c1ccc(Cl)cc1)=N[C@@H](CC(=O)OC(C)(C)C)c1nnc(C)n1-2
How it was run: as §1

[5] = compound: c1ccc([C@@H]2C[C@H]2NC2CCNCC2)cc1
How it was run: as §1

Measured: log2 fold change

PLIN3 (UniProt O60664)
inactive: [1] 0.016 | [2] -0.018 | [3] -0.007 | [4] 0.026 | [5] 0.001

POT1 (UniProt Q9NUX5)
inactive: [1] -0.038 | [2] -0.015 | [3] -0.158 | [4] 0.07 | [5] 0.086

POLR2A, A0A590UJN4
inactive: [1] -0.004 | [2] 0.022 | [3] 0.007 | [4] 0.008 | [5] 0.005

PNP (UniProt P00491)
inactive: [1] 0.039 | [2] -0.031 | [3] 0.01 | [4] 0.007 | [5] 0.009

PNO1 (UniProt Q9NRX1)
inactive: [1] -0.02 | [2] 0.001 | [3] 0.012 | [4] -0.003 | [5] 0.04

PLRG1 (UniProt O43660)
inactive: [1] 0.057 | [2] 0.009 | [3] 0.02 | [4] -0.006 | [5] -0.035

POP4 (UniProt O95707)
inactive: [1] 0.057 | [2] 0.114 | [3] 0.019 | [4] -0.029 | [5] 0.008

POLR2E (UniProt P19388)
inactive: [1] 0.015 | [2] -0.03 | [3] 0.035 | [4] -0.049 | [5] -0.004

POLE (UniProt Q07864)
inactive: [1] -0.028 | [2] -0.045 | [3] -0.019 | [4] -0.013 | [5] 0

PLEKHO2 (UniProt Q8TD55)
inactive: [1] -0.158 | [2] 0.077 | [3] -0.076 | [4] -0.107 | [5] 0.043

POLR1B isoform 3 (UniProt Q9H9Y6)
inactive: [1] -0.07 | [2] 0.07 | [3] 0.069 | [4] 0.001 | [5] -0.038

PODXL2 (UniProt Q9NZ53)
inactive: [1] 0.037 | [2] 0.023 | [3] 0.057 | [4] -0.028 | [5] -0.065

POLB (UniProt P06746)
inactive: [1] -0.02 | [2] -0.005 | [3] 0.028 | [4] 0.041 | [5] 0.021

POLA1 (UniProt P09884)
inactive: [1] 0.006 | [2] 0.01 | [3] 0.037 | [4] -0.002 | [5] 0.002

PLK1 (UniProt P53350)
inactive: [1] 0.033 | [2] 0.042 | [3] 0.052 | [4] -0.026 | [5] 0.084

PPAT (UniProt Q06203)
inactive: [1] 0.015 | [2] 0.023 | [3] 0 | [4] -0.006 | [5] 0.048

Quoted from above (two entries):
PODXL2 (UniProt Q9NZ53)
inactive: [1] 0.037 | [2] 0.023 | [3] 0.057 | [4] -0.028 | [5] -0.065

POLB (UniProt P06746)
inactive: [1] -0.02 | [2] -0.005 | [3] 0.028 | [4] 0.041 | [5] 0.021

Further results

POLG2 (UniProt Q9UHN1)
inactive: [1] 0.051 | [2] -0.056 | [3] 0.025 | [4] 0.019 | [5] -0.041

PNISR (UniProt Q8TF01)
inactive: [1] 0.015 | [2] 0.02 | [3] -0.066 | [4] 0.007 | [5] -0.037

POP5 (UniProt Q969H6)
inactive: [1] -0.063 | [2] -0.205 | [3] 0.026 | [4] -0.036 | [5] 0.177

PMS1 (UniProt P54277)
inactive: [1] -0.011 | [2] -0.056 | [3] 0 | [4] -0.06 | [5] -0.006

PNPT1 (UniProt Q8TCS8)
inactive: [1] 0.027 | [2] 0.043 | [3] 0.017 | [4] 0 | [5] 0.013

PLXNA1 (UniProt Q9UIW2)
inactive: [1] 0.013 | [2] 0.015 | [3] 0.023 | [4] 0.001 | [5] -0.011

PPID (UniProt Q08752)
inactive: [1] -0.001 | [2] 0.008 | [3] -0.013 | [4] 0.029 | [5] 0.095

POLR2B (UniProt P30876)
inactive: [1] -0.021 | [2] 0.024 | [3] 0.019 | [4] 0.021 | [5] 0.013

POFUT1 (UniProt Q9H488)
inactive: [1] 0.056 | [2] 0.056 | [3] -0.013 | [4] 0.043 | [5] 0.016

PPFIA3 (UniProt O75145)
inactive: [1] 0.106 | [2] 0.14 | [3] 0.012 | [4] -0.08 | [5] 0.076

PPIC (UniProt P45877)
inactive: [1] 0.209 | [2] -0.242 | [3] 0.12 | [4] 0.005 | [5] 0.055

PLXNB2 (UniProt O15031)
inactive: [1] -0.034 | [2] 0.037 | [3] 0.014 | [4] 0.004 | [5] -0.024

POLR3GL (UniProt Q9BT43)
inactive: [1] -0.049 | [2] 0.076 | [3] 0.052 | [4] -0.007 | [5] 0.078

PPFIA2 (UniProt O75334)
inactive: [1] 0.022 | [2] 0.041 | [3] 0.003 | [4] -0.016 | [5] -0.132

Three entries picked at random from the list so far, as already listed:
POP5 (UniProt Q969H6)
inactive: [1] -0.063 | [2] -0.205 | [3] 0.026 | [4] -0.036 | [5] 0.177

PLIN3 (UniProt O60664)
inactive: [1] 0.016 | [2] -0.018 | [3] -0.007 | [4] 0.026 | [5] 0.001

PNISR (UniProt Q8TF01)
inactive: [1] 0.015 | [2] 0.02 | [3] -0.066 | [4] 0.007 | [5] -0.037

(list continues)

PLP2 (UniProt Q04941)
inactive: [1] -0.026 | [2] 0.203 | [3] 0.033 | [4] 0.159 | [5] -0.09

POP7 (UniProt O75817)
inactive: [1] 0.008 | [2] 0.284 | [3] -0.072 | [4] 0.023 | [5] -0.052

POLR2H (UniProt P52434)
inactive: [1] -0.017 | [2] -0.013 | [3] 0.091 | [4] 0.031 | [5] -0.008

POLR1E (UniProt Q9GZS1)
inactive: [1] -0.016 | [2] -0.046 | [3] 0.005 | [4] -0.019 | [5] 0.031

POGK (UniProt Q9P215)
inactive: [1] -0.142 | [2] 0.13 | [3] -0.008 | [4] 0.016 | [5] -0.068

POR (UniProt P16435)
inactive: [1] -0.002 | [2] 0.031 | [3] 0.008 | [4] 0.016 | [5] -0.02

PMF1 (UniProt Q6P1K2)
inactive: [1] 0.147 | [2] -0.098 | [3] 0.018 | [4] -0.031 | [5] 0.091

POGLUT3 (UniProt Q7Z4H8)
inactive: [1] 0.008 | [2] -0.028 | [3] -0.045 | [4] 0.021 | [5] -0.012

PPCDC (UniProt Q96CD2)
inactive: [1] -0.02 | [2] 0.034 | [3] -0.054 | [4] -0.074 | [5] -0.191

PML (UniProt P29590)
inactive: [1] 0.108 | [2] -0.019 | [3] -0.002 | [4] -0.003 | [5] -0.045

POLE2 (UniProt P56282)
inactive: [1] -0.023 | [2] 0.059 | [3] 0.115 | [4] -0.055 | [5] 0.002

POMK (UniProt Q9H5K3)
inactive: [1] -0.051 | [2] -0.114 | [3] -0.016 | [4] 0.005 | [5] 0.023

PMM1 (UniProt Q92871)
inactive: [1] 0 | [2] 0.203 | [3] 0.099 | [4] -0.027 | [5] 0.023

POLR2M (UniProt Q6EEV4)
inactive: [1] 0.01 | [2] 0.042 | [3] -0.084 | [4] 0.132 | [5] 0.012

PMM2 (UniProt O15305)
inactive: [1] -0.008 | [2] -0.019 | [3] -0.015 | [4] 0.069 | [5] -0.008

POM121 (UniProt Q96HA1)
inactive: [1] 0.011 | [2] -0.026 | [3] -0.031 | [4] -0.201 | [5] -0.014

POLR2L (UniProt P62875)
inactive: [1] -0.087 | [2] -0.225 | [3] 0.082 | [4] 0.057 | [5] 0.236

POLR3G (UniProt O15318)
inactive: [1] 0.025 | [2] 0.011 | [3] -0.018 | [4] -0.076 | [5] -0.068

PPFIA1 (UniProt Q13136)
inactive: [1] -0.002 | [2] 0.001 | [3] 0.009 | [4] -0.037 | [5] -0.011

PNN (UniProt Q9H307)
inactive: [1] 0.017 | [2] -0.036 | [3] 0.029 | [4] 0.031 | [5] -0.031

POLDIP3 (UniProt Q9BY77)
inactive: [1] 0.116 | [2] -0.067 | [3] 0.116 | [4] 0.096 | [5] -0.1

PLOD3 (UniProt O60568)
inactive: [1] -0.024 | [2] 0.001 | [3] 0.012 | [4] 0.008 | [5] -0.004

POLR2K (UniProt P53803)
inactive: [1] -0.011 | [2] 0.015 | [3] -0.035 | [4] 0.038 | [5] 0.046

PNPLA8 (UniProt Q9NP80)
inactive: [1] -0.249 | [2] -0.002 | [3] 0.059 | [4] 0.02 | [5] -0.015
